# The list shows a part of the results. Further columns of the screen follow, without active or inactive calls. Compounds called inactive in the main read-out are mostly missing here. The note in brackets gives the kind of curve behind each potency; many fits are weak.
# Assay: qHTS Assay for Lipid Storage Modulators in Drosophila S3 Cells;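 for cell number change: cells counted by Cell Tracker Red CMTPX staining in the red channel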
# Settings: BODIPY lipid droplet fluorescence, 18-24 h; for cell number change: measured here: cell count max response, cells fed with added oleic acid
# Procedure, shortened: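 Drosophila S3 cells loaded with oleic acid (400 uM, as added) and compounds at several concentrations; lipid droplets imaged by 488-nm laser-scanning cytometry, 500–530 nm intensity and object ratio to cell channel. Percent activity normalized to 20 uM Triacsin C.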
# [1] = measured here: cell number channel AC50, cells fed with added oleic acid
# [2] = measured here: lipid fluorescence (Fed channel) AC50, cells fed with added oleic acid
Structure (SMILES),cell number change [%],AC50 [1],AC50 [2]
CCCCCOc1ccc(CSCCNC(=S)Nc2ccccc2)cc1,-22.5,,
CN(C(=O)C1CCCN1S(=O)(=O)c1ccc(Cl)cc1)c1ccccc1 (stereo not given),18.1,"0.731 µM [falling, single point]",
COc1ccc(OC)c(-n2c(-c3cc(-c4ccc(F)cc4)n[nH]3)n[nH]c2=S)c1,-26.2,,"32.6 µM [falling, single point]"
O=C(Nc1ccc(Oc2ccccc2)nc1)C1CCN(Cc2cccc(F)c2)CC1,-31.2,"29.1 µM [falling, single point]","29.1 µM [falling, single point]"
COCC(=O)Nc1cc(OC)c(Cl)cc1OC,169,"16.4 µM [rising, partial curve]","29.1 µM [rising, single point]"
CS(=O)(=O)c1ccc(C(=O)NC(Cc2ccccc2)c2ccccc2)cc1 (stereo not given),20.2,,"32.6 µM [falling, single point]"
COC(=O)c1ccc(C(=O)Nc2ccc3c(c2)C(=O)NC3=O)cc1,-21.8,,"29.1 µM [falling, single point]"
COc1cccc(C2CC(c3cccs3)=NN2C(=O)c2ccco2)c1O (stereo not given),2.61,,
O=c1cc(C(F)(F)F)nc(-c2ccccc2)[nH]1,-2.39,,"1.16 µM [rising, partial curve]"
Cc1c(Nc2nc3ccccc3nc2N2CCN(c3ccccc3)CC2)c(=O)n(-c2ccccc2)n1C,-25.9,,"0.58 µM [rising, single point]"
NS(=O)(=O)c1ccc(NC(=O)COC(=O)CCc2c[nH]c3ccccc23)cc1,-39.5,"0.13 µM [falling, full curve]","0.517 µM [falling, full curve]"
COc1ccc(C)cc1N(CC(=O)N1CCCCCC1)S(=O)(=O)c1ccccc1,5.13,,
C[C@H](NS(=O)(=O)c1ccc2c(c1)OCCCO2)C(=O)N1CCN(Cc2ccccc2)CC1,-50,"29.1 µM [falling, single point]",
CCCCC(=O)Nc1ccc2oc(-c3ccncc3)nc2c1,232,"29.1 µM [rising, single point]","29.1 µM [rising, single point]"
Cc1cccc(N(CC(=O)Nc2ccc(CC#N)cc2)S(C)(=O)=O)c1,-155,"16.4 µM [falling, partial curve]","23.1 µM [falling, partial curve]"
CN(c1ccccc1C(=O)NCc1ccccn1)S(C)(=O)=O,16.1,"1.3 µM [falling, full curve, poor fit]","6.51 µM [falling, single point]"

# Retrieved one by one from the entries so far:
Structure (SMILES),cell number change [%],AC50 [1],AC50 [2]
O=c1cc(C(F)(F)F)nc(-c2ccccc2)[nH]1,-2.39,,"1.16 µM [rising, partial curve]"
CN(C(=O)C1CCCN1S(=O)(=O)c1ccc(Cl)cc1)c1ccccc1 (stereo not given),18.1,"0.731 µM [falling, single point]",
